Results taken from PubChem BioAssay AID493014 (National Center for Advancing Translational Sciences (NCATS), 2011).
The list shows a part of the results. Further columns of the screen follow, without active or inactive calls. Compounds called inactive in the main read-out are mostly missing here. The note in brackets gives the kind of curve behind each potency; many fits are weak.

Assay: qHTS Assay to Find Inhibitors of Chronic Active B-Cell Receptor Signaling
Conditions: ABC-DLBCL IkBa-CBG/CBR reporter, luminescence ratio (green luciferase fused to IkBa over red control in TMD8 lymphoma cells), 4 h
How it was run: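 Concentration-response series (up to 46 uM) were applied to TMD8 dual-reporter cells for 4 h at 37C with doxycycline. Green/red ratio, after filter-overlap correction, defined %Activity; red signal alone was normalised to basal cells and zero luminescence.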

[1] = measured here: CBR red luminescence, cell number
[2] = measured here: IkBa-CBG green luminescence

Compound	AC50 [1]	AC50 [2]
Cc1ccc(Cn2ccc(NC(=O)CCSc3nc(-c4ccco4)cc(C(F)(F)F)n3)n2)cc1	0.0058 µM [rising, full curve, poor fit]	–
COCCCNC(=O)c1cn(C)c(=O)c2c1c1ccccc1n2C	15.8 µM [rising, partial curve, poor fit]	–
Cc1nc(N)sc1C(=O)N/N=C/c1ccccc1[N+](=O)[O-]	6.31 µM [falling, partial curve, poor fit]	–
COc1cccc(C(=O)n2c(SC)nc3cc4c(cc32)OCCO4)c1	3.98 µM [falling, full curve, poor fit]	–
CC1CCN(C(=O)CSc2nc(N)c3c4c(sc3n2)CN(C)CC4)CC1	3.55 µM [rising, single point]	–
CC1CCc2sc(C(=O)N3CCC(C(N)=O)CC3)cc2C1 (configuration not stated)	29.1 µM [falling, single point]	–
O=C(NCc1ccc(Cl)s1)c1cc(COc2c(F)cccc2F)on1	35.5 µM [rising, single point]	–
Cc1sc2nc(COC(=O)c3ccc(O)cc3)[nH]c(=O)c2c1C	11.2 µM [falling, single point]	–
O=[N+]([O-])/C=C/c1cn(Cc2ccc(F)cc2)c2ccccc12	35.5 µM [rising, single point]	35.5 µM [falling, single point]
COc1ccc(NC(=O)CCSc2ccc3ccccc3n2)cc1	10.3 µM [rising, partial curve]	–
Cc1ccc(OCCCCN2CCC(C)CC2)c(Br)c1	32.6 µM [falling, single point]	–
CC1=C(C(=O)Nc2cccc(C(=O)NC3CCCCC3C)c2)SCCO1 (configuration not stated)	10 µM [falling, partial curve]	–
CCOC(=O)N1CCN(C(=O)CSc2nc3ccccc3c(=O)n2-c2ccccc2)CC1	0.501 µM [rising, full curve, poor fit]	–
C/C(=N\Nc1cccc(C(F)(F)F)c1)c1ccc(O)cc1	2.24 µM [rising, full curve, poor fit]	–
CCCN1CCc2c(sc(NC(=O)c3ccc(S(=O)(=O)N4CCCC4)cc3)c2C(N)=O)C1	11.2 µM [rising, partial curve, poor fit]	–
CC1(C)CC(=O)C(=Cc2cn(CCC#N)nc2-c2ccc(Cl)cc2)C(=O)C1	23.1 µM [rising, single point]	–
O=C(N/N=C/c1ccco1)c1ccccc1OCc1ccccc1Cl	29.1 µM [falling, single point]	–
N#CC12CCCCC1CC1CCCCC1(C#N)N2Cc1ccccn1 (configuration not stated)	3.55 µM [falling, partial curve, poor fit]	–
CCOC(=O)c1c(-c2ccccc2)csc1NC(=O)c1cc(S(=O)(=O)N2CCOCC2)ccc1C	6.51 µM [falling, single point]	–
Cc1c(NS(C)(=O)=O)cccc1-c1nc2cccnc2s1	3.16 µM [rising, full curve, poor fit]	–
OC(COc1ccc2c(c1)OCO2)CN1CCCC1 (configuration not stated)	0.398 µM [falling, partial curve, poor fit]	–
Cc1nn(CC2CC2)c(=O)n1-c1ccc(Cl)cc1	8.91 µM [rising, partial curve]	–

Compound	AC50 [1]	AC50 [2]
Cc1ccc(NC2=C(N3CCCCC3)C(=O)c3ccccc3C2=O)cc1	22.4 µM [falling, single point]	–
CCOc1ccc(OCC)c(NC(=O)CCS(=O)(=O)c2ccc(Br)s2)c1	0.259 µM [rising, full curve, poor fit]	–
CCN(CC)CCN1C(=O)C(=O)/C(=C(/O)c2ccc(OC)cc2)C1c1cccs1 (configuration not stated)	35.5 µM [falling, single point]	–
Cc1nc(NNC(=O)c2ccccc2)cc(-c2ccccc2)n1	29.1 µM [falling, single point]	–
Cc1ccc(CN2C(=O)CCC2C(=O)NCCCN2CCCCC2C)cc1 (configuration not stated)	1.26 µM [falling, partial curve, poor fit]	–
O=C(NC(=O)c1cccc(F)c1)OC[C@@H]1CCCN2CCCC[C@H]12	25.9 µM [rising, single point]	–
O=C(Cc1coc(-c2ccc(F)cc2)n1)Nc1ccccc1	12.6 µM [falling, single point]	–
CN(C)CCn1c(NCc2ccc3c(c2)OCO3)nc2ccccc21	17.8 µM [falling, single point]	–
COc1ccc(C(C)=O)cc1CSc1nc2nc(C)cc(C)n2n1	12.6 µM [rising, partial curve, poor fit]	–
COc1ccc(CC(=O)Nc2cccc(SC)c2)cc1OC	0.891 µM [rising, full curve, poor fit]	–
CN1CCC(N(C)C(=O)/C=C/c2cn(-c3ccccc3)nc2-c2cccs2)CC1	35.5 µM [falling, single point]	–
CSc1sc(C(=O)NCC2CC2)c(-c2cccs2)c1C#N	5.62 µM [rising, single point]	–
N=c1c2c3c(sc2ncn1CCCN1CCOCC1)CCCCC3	18.4 µM [rising, partial curve, poor fit]	–
O=C(NNC(=O)c1ccccc1OCc1ccc(F)cc1)c1ccccc1O	11.2 µM [falling, partial curve, poor fit]	–
Cc1ccc(NC(=O)c2ccc(NCc3ccco3)c([N+](=O)[O-])c2)cc1Cl	0.651 µM [falling, full curve, poor fit]	–
O=C(COC(=O)c1cc([N+](=O)[O-])ccc1N1CCOCC1)NC1CCCCC1	5.8 µM [rising, partial curve]	–
Nc1ncnc2c1ncn2[C@@H]1O[C@H](CO)[C@@H](O)[C@H]1O	18.4 µM [rising, partial curve]	–
Cc1ccc(NC(=O)c2ccc(Cl)cc2Cl)cc1O	3.55 µM [rising, partial curve, poor fit]	–
O=c1[nH]c(-c2ccccc2)c(-c2ccccc2)o1	2 µM [rising, partial curve]	–
Cc1cc(Cl)ccc1NC(=S)NCc1ccc(F)cc1	20 µM [rising, single point]	–
CCc1ccc(C(=O)COc2ccc(NC(C)=O)cc2)cc1	4.11 µM [rising, single point]	–
CCOc1ccc(C(CC(=O)O)NC(=O)C(c2ccccc2)c2ccccc2)cc1OC (configuration not stated)	–	29.1 µM [rising, partial curve, poor fit]

Compound	AC50 [1]	AC50 [2]
CC(C)Oc1ccc(CNC(=O)c2ccc3c(c2)N(C)CCS3)cc1	11.2 µM [falling, partial curve]	–
S=C(NCc1ccccc1)Nc1ccc(Oc2ccccc2)cc1	35.5 µM [falling, single point]	–
Cc1ccc(NC(=O)c2noc3c2CCCCC3)cc1	10 µM [falling, partial curve]	–
Cc1ccc(-c2noc(-c3ccccc3C(=O)N3CCOCC3)n2)cc1	23.1 µM [rising, single point]	–
O=C(N/N=C/C(Br)=C/c1ccccc1)C1CC1	1 µM [rising, full curve, poor fit]	–
CN(C)/N=C/c1cn(-c2ccccc2)nc1-c1cccnc1	11.2 µM [falling, partial curve, poor fit]	–
CSc1nc2c(sc3ccccc32)c(=O)n1Cc1ccc(C)cc1	1.12 µM [falling, full curve]	–
COc1ccc(-c2n[nH]c(=S)n2-c2ccc(C)cc2)cc1OC	35.5 µM [rising, single point]	–
C/C(=N\NC(=O)c1ccccc1)c1cccc(Br)c1	15.8 µM [falling, partial curve]	–
CCc1ccc(/C=C2/C(=O)N(CC)C(=S)N2C)s1	5.17 µM [rising, single point]	–
COC(=O)c1ccccc1NC(=O)c1sc(Cl)nc1C	35.5 µM [falling, single point]	–
CCOC(=O)C1(Cc2cccc(OC)c2)CCN(C2CCOCC2)CC1	35.5 µM [falling, single point]	–
CC/C(=N\NC(=S)Nc1cccc(C)c1)c1ccccc1	7.94 µM [falling, partial curve, poor fit]	5.01 µM [falling, single point]
O=[N+]([O-])c1ccc(CS(=O)(=O)N2CCN(c3ccccc3)CC2)cc1	0.178 µM [rising, full curve, poor fit]	–
COC(=O)c1ccc(N=C2SCC(=O)N2C)cc1	35.5 µM [rising, single point]	–
CC(=O)N1N=C(c2c(-c3ccccc3)c3cc(C)ccc3[nH]c2=O)CC1c1ccco1 (configuration not stated)	20.6 µM [falling, single point]	–
C/C(N)=C(/C#N)C(=O)CSc1cc(Cl)ccc1Cl	6.51 µM [rising, partial curve, poor fit]	–
C[C@@]12C(=O)N(c3cccc(Cl)c3)C(=O)N1[C@H](c1ccc(Cl)cc1)[C@@H]1C(=O)N(C3CCCCC3)C(=O)[C@@H]12	11.6 µM [falling, partial curve, poor fit]	–
Cc1nc2ccccc2c2oc(C(=O)N3CCN(c4ccc([N+](=O)[O-])cc4)CC3)cc12	3.55 µM [falling, partial curve, poor fit]	–
CCN(Cc1ccccc1)Cc1nc(CCc2ccccc2)no1	0.891 µM [rising, full curve, poor fit]	–
Cc1ccc(NC(=O)CNc2cccc(S(=O)(=O)N3CCOCC3)c2)cc1F	9.2 µM [falling, partial curve, poor fit]	–

Three records picked at random from those above:
Compound	AC50 [1]	AC50 [2]
CN(C)CCn1c(NCc2ccc3c(c2)OCO3)nc2ccccc21	17.8 µM [falling, single point]	–
CSc1nc2c(sc3ccccc32)c(=O)n1Cc1ccc(C)cc1	1.12 µM [falling, full curve]	–
C/C(=N\NC(=O)c1ccccc1)c1cccc(Br)c1	15.8 µM [falling, partial curve]	–
